Experimental data: paper PMC2894085

Protein sequences, listed by entry. Tags and fused reporters are not part of them. Lines headed by an entry give the natural chain unless they say otherwise; changes in a name come on top.
UniProt P28072: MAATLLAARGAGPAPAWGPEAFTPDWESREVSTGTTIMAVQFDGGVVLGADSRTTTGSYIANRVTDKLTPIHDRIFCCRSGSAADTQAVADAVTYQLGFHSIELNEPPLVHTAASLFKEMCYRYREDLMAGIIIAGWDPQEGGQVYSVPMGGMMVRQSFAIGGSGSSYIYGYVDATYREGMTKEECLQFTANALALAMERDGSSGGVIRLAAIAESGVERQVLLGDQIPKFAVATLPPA
UniProt P12520: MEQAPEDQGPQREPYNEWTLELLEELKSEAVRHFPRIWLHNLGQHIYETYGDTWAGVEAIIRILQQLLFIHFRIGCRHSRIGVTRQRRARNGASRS

Biological target: protein A (ZZ)-tagged proteasomal β1 subunit (UniProt P28072)
Test: co-IP; HeLa cells co-transfected with pSG5-β1-ZZ or control plasmid and pcDNA3-HA-Vpr, 48 hrs; precipitated with anti-protein A antibody, blotted with anti-HA

HA-tagged Vpr on pcDNA3.1, expressed in HeLa cells (from UniProt P12520 1-96)
binding: binds

No constants are given. Whether binding was seen depends on the method and setting. In cells and extracts the contact can be indirect. Binding can be weak; no strength is given.
